Taken from: PubChem BioAssay AID1224830 (NIAID, 2016)
Test: 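Host factors that control LPS-induced TNF expression in human macrophages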 (primary screen). System: human THP-1 monocytic leukaemia cells, TNF dual-luciferase reporter clone, PMA-differentiated to macrophage-like cells. Reagents: siRNA pool against human genes, 50 nM. Time to read-out: LPS for 4 h, given about 3 days after siRNA transfection. Conditions: bacterial LPS (TLR4 ligand), 10 ng/ml. Detection: 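TNF firefly reporter luminescence divided by renilla, normalised to the plate median, then turned into a robust z-score for each replicate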. Reading the numbers: TNF reporter robust z-score: higher = stronger TNF reporter response to LPS. Rule for the call: 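a well is active when its z-score exceeds 2.8 or falls below -1.5; control wells carry no call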.
The whole screen tested about 18,000 reagents; this is an unselected part. About 2,900 of all reagents (16%) count as active. 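Calls are made per well; low scores hint the gene aids the LPS response, high scores that it dampens it.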 Repeated entries: four replicate wells of each siRNA pool. No sequences are given here.

gene | TNF reporter robust z-score | activity call
LOC284009 (GeneID 284009) | -0.74 | inactive
LOC284009 (GeneID 284009) | -0.88 | inactive
LOC284009 (GeneID 284009) | -1.42 | inactive
LOC284009 (GeneID 284009) | -0.66 | inactive
VPS51 (GeneID 738) | 0.36 | inactive
VPS51 (GeneID 738) | 0.29 | inactive
VPS51 (GeneID 738) | 0.47 | inactive
VPS51 (GeneID 738) | -0.2 | inactive
DDX50 (GeneID 79009) | 0.8 | inactive
DDX50 (GeneID 79009) | 0.61 | inactive
DDX50 (GeneID 79009) | 0 | inactive
DDX50 (GeneID 79009) | 0.38 | inactive
DNAJB13 (GeneID 374407) | -0.29 | inactive
DNAJB13 (GeneID 374407) | 0.24 | inactive
DNAJB13 (GeneID 374407) | 0.4 | inactive
DNAJB13 (GeneID 374407) | 0.16 | inactive
EXOSC8 (GeneID 11340) | 0.09 | inactive
EXOSC8 (GeneID 11340) | -0.45 | inactive
EXOSC8 (GeneID 11340) | -0.39 | inactive
EXOSC8 (GeneID 11340) | -0.76 | inactive
TMEM257 (retired record) (GeneID 9142) | -0.85 | inactive
TMEM257 (retired record) (GeneID 9142) | -0.72 | inactive
TMEM257 (retired record) (GeneID 9142) | -0.71 | inactive
TMEM257 (retired record) (GeneID 9142) | -0.23 | inactive
DEFB104A (GeneID 140596) | 7.09 | active
DEFB104A (GeneID 140596) | 1.05 | inactive
DEFB104A (GeneID 140596) | 0.99 | inactive
DEFB104A (GeneID 140596) | 1.31 | inactive
NAP1L3 (GeneID 4675) | 0.53 | inactive
NAP1L3 (GeneID 4675) | 0.42 | inactive
NAP1L3 (GeneID 4675) | 0.24 | inactive
NAP1L3 (GeneID 4675) | 0.57 | inactive
TSSK3 (GeneID 81629) | -0.07 | inactive
TSSK3 (GeneID 81629) | -0.66 | inactive
TSSK3 (GeneID 81629) | -0.42 | inactive
TSSK3 (GeneID 81629) | -0.29 | inactive
DAPP1 (GeneID 27071) | -0.44 | inactive
DAPP1 (GeneID 27071) | 0.38 | inactive
DAPP1 (GeneID 27071) | 0.55 | inactive
DAPP1 (GeneID 27071) | -0.34 | inactive
NPTX2 (GeneID 4885) | 1.66 | inactive
NPTX2 (GeneID 4885) | 0.43 | inactive
NPTX2 (GeneID 4885) | 0.22 | inactive
NPTX2 (GeneID 4885) | 1.16 | inactive
ZSCAN32 (GeneID 54925) | -1.25 | inactive
ZSCAN32 (GeneID 54925) | -0.49 | inactive
ZSCAN32 (GeneID 54925) | -0.95 | inactive
ZSCAN32 (GeneID 54925) | -0.7 | inactive
ZMYM5 (GeneID 9205) | -0.91 | inactive
ZMYM5 (GeneID 9205) | 0.34 | inactive
ZMYM5 (GeneID 9205) | 0.36 | inactive
ZMYM5 (GeneID 9205) | -0.05 | inactive
NANOS1 (GeneID 340719) | -0.76 | inactive
NANOS1 (GeneID 340719) | 0.33 | inactive
NANOS1 (GeneID 340719) | -0.43 | inactive
NANOS1 (GeneID 340719) | 0.92 | inactive
C1GALT1C1 (GeneID 29071) | 1.08 | inactive
C1GALT1C1 (GeneID 29071) | 0.59 | inactive
C1GALT1C1 (GeneID 29071) | -0.95 | inactive
C1GALT1C1 (GeneID 29071) | -0.23 | inactive
C1GALT1C1 (GeneID 29071) | 3.29 | active
C1GALT1C1 (GeneID 29071) | 1.79 | inactive
C1GALT1C1 (GeneID 29071) | -0.31 | inactive
C1GALT1C1 (GeneID 29071) | 1.14 | inactive
ADRM1 (GeneID 11047) | -1.3 | inactive
ADRM1 (GeneID 11047) | 0.49 | inactive
ADRM1 (GeneID 11047) | 0.29 | inactive
ADRM1 (GeneID 11047) | -0.63 | inactive
SPOCK3 (GeneID 50859) | -0.1 | inactive
SPOCK3 (GeneID 50859) | -0.43 | inactive
SPOCK3 (GeneID 50859) | -0.19 | inactive
SPOCK3 (GeneID 50859) | -0.03 | inactive
ARSJ (GeneID 79642) | -0.48 | inactive
ARSJ (GeneID 79642) | 0.21 | inactive
ARSJ (GeneID 79642) | -0.34 | inactive
ARSJ (GeneID 79642) | 0.6 | inactive
THAP12 (GeneID 5612) | 0.59 | inactive
THAP12 (GeneID 5612) | 0.39 | inactive
THAP12 (GeneID 5612) | -0.3 | inactive
THAP12 (GeneID 5612) | 0.32 | inactive
CIMIP7 (GeneID 646498) | 0.76 | inactive
CIMIP7 (GeneID 646498) | 0.65 | inactive
CIMIP7 (GeneID 646498) | -0.24 | inactive
CIMIP7 (GeneID 646498) | 0.54 | inactive
OR10AD1 (GeneID 121275) | 1.54 | inactive
OR10AD1 (GeneID 121275) | 0.53 | inactive
OR10AD1 (GeneID 121275) | 1.92 | inactive
OR10AD1 (GeneID 121275) | -0.13 | inactive
VWA2 (GeneID 340706) | -0.93 | inactive
VWA2 (GeneID 340706) | -0.4 | inactive
VWA2 (GeneID 340706) | -0.54 | inactive
MDC1 (GeneID 9656) | -0.8 | inactive
MDC1 (GeneID 9656) | -0.1 | inactive
MDC1 (GeneID 9656) | -0.23 | inactive
MDC1 (GeneID 9656) | 0.91 | inactive
GPANK1 (GeneID 7918) | 0.22 | inactive
GPANK1 (GeneID 7918) | 2.23 | inactive
GPANK1 (GeneID 7918) | 0.84 | inactive
GPANK1 (GeneID 7918) | 0.43 | inactive
MSI1 (GeneID 4440) | 0.83 | inactive
MSI1 (GeneID 4440) | 0 | inactive
MSI1 (GeneID 4440) | 2.89 | active
MSI1 (GeneID 4440) | -0.27 | inactive
DBF4 (GeneID 10926) | 1.83 | inactive
DBF4 (GeneID 10926) | 0.5 | inactive
DBF4 (GeneID 10926) | 0.94 | inactive
DBF4 (GeneID 10926) | 0.4 | inactive
CYP7A1 (GeneID 1581) | 0.06 | inactive
CYP7A1 (GeneID 1581) | 0.67 | inactive
CYP7A1 (GeneID 1581) | 0 | inactive
CYP7A1 (GeneID 1581) | 0.52 | inactive
RPL29 (GeneID 6159) | 1.02 | inactive
RPL29 (GeneID 6159) | 1.62 | inactive
RPL29 (GeneID 6159) | 1.36 | inactive
RPL29 (GeneID 6159) | 2.26 | inactive
PLEKHJ1 (GeneID 55111) | -0.95 | inactive
PLEKHJ1 (GeneID 55111) | -0.54 | inactive
PLEKHJ1 (GeneID 55111) | -0.65 | inactive
PLEKHJ1 (GeneID 55111) | -0.57 | inactive
FMN2 (GeneID 56776) | 0.43 | inactive
FMN2 (GeneID 56776) | 0.78 | inactive
FMN2 (GeneID 56776) | -1.46 | inactive
FMN2 (GeneID 56776) | -1.02 | inactive
CCDC141 (GeneID 285025) | 2.17 | inactive
CCDC141 (GeneID 285025) | 1.53 | inactive
CCDC141 (GeneID 285025) | -0.69 | inactive
CCDC141 (GeneID 285025) | 2.32 | inactive
CERK (GeneID 64781) | 2.38 | inactive
CERK (GeneID 64781) | -1.12 | inactive
CERK (GeneID 64781) | -1.07 | inactive
CERK (GeneID 64781) | -0.47 | inactive
EOMES (GeneID 8320) | 0.75 | inactive
EOMES (GeneID 8320) | 1.18 | inactive
EOMES (GeneID 8320) | -0.1 | inactive
EOMES (GeneID 8320) | 0.24 | inactive
C2CD3 (GeneID 26005) | 1.87 | inactive
C2CD3 (GeneID 26005) | 2.14 | inactive
C2CD3 (GeneID 26005) | 2.33 | inactive
C2CD3 (GeneID 26005) | 2.31 | inactive
SET (GeneID 6418) | -0.24 | inactive
SET (GeneID 6418) | -0.5 | inactive
SET (GeneID 6418) | -0.08 | inactive
SET (GeneID 6418) | 0.49 | inactive

Entries listed so far whose target name starts with E or e (8):
gene | TNF reporter robust z-score | activity call
EXOSC8 (GeneID 11340) | 0.09 | inactive
EXOSC8 (GeneID 11340) | -0.45 | inactive
EXOSC8 (GeneID 11340) | -0.39 | inactive
EXOSC8 (GeneID 11340) | -0.76 | inactive
EOMES (GeneID 8320) | 0.75 | inactive
EOMES (GeneID 8320) | 1.18 | inactive
EOMES (GeneID 8320) | -0.1 | inactive
EOMES (GeneID 8320) | 0.24 | inactive
